Values quoted from earlier work, collected in patent US20040122033A1, “Combination therapy for the treatment of obesity” (priority 2002, published 2004).
Some entries share one result that the patent states for a list of compounds. Some ranges recur; such a range may be that of the whole group of compounds.

Conditions: cited from earlier work

## CCCCCCCCCCC[C@@H](C[C@@H]1OC(=O)[C@H]1CCCCCC)OC(=O)[C@H](CC(C)C)NC=O [orlistat]
monotherapy, literature studies
  weight loss of body weight for drug compared to placebo: 5%-10%
Over a 6 month or a 1 year period
  reduction of body weight: less than 10%
